Where “and” joins values, the source holds several entries; their conditions need not be identical. Equal entries are not always repeated.
Key:
[1] = tested on: soybean explants; assay: Soybean explant feeding 3 days with 50 mM cyclitol in 1% sucrose, slow drying time course, soluble carbohydrates in axis, cotyledon, seed coat and leaf
[2] = tested on: immature soybean embryos; assay: Embryo feeding experiments: cyclitols fed to immature soybean embryos, precocious maturation by slow drying, soluble carbohydrates in axis and cotyledons; format: in vivo, Glycine max (L.) Merrill
[3] = tested on: buckwheat explants; assay: Buckwheat explant feeding with 100 mM cyclitol in 1% sucrose for 5 days, soluble carbohydrates in embryos and leaf disks; format: in vivo, Fagopyrum esculentum; conditions: replicate values
[4] = 3 days transport of sucrose (1%) and D-chiro-inositol (50 mM), after 2 days slow drying, Rep 1
[5] = 3 days transport of sucrose (1%) and D-chiro-inositol (50 mM), after 2 days slow drying, Rep 2
[6] = 3 days transport of sucrose (1%) and D-chiro-inositol (50 mM), after 4 days slow drying, Rep 1
[7] = 3 days transport of sucrose (1%) and D-chiro-inositol (50 mM), after 4 days slow drying, Rep 2
[8] = 3 days transport of sucrose (1%) and D-chiro-inositol (50 mM), after 14 days slow drying, Rep 1
[9] = 3 days transport of sucrose (1%) and D-chiro-inositol (50 mM), after 14 days slow drying, Rep 2
[10] = 3 days transport of sucrose (1%) and D-chiro-inositol (50 mM), before slow drying, Rep 1
[11] = 3 days transport of sucrose (1%) and D-chiro-inositol (50 mM), before slow drying, Rep 2
[12] = 3 days transport of sucrose (1%) and D-pinitol (50 mM), after 2 days slow drying, Rep 1
[13] = 3 days transport of sucrose (1%) and D-pinitol (50 mM), after 2 days slow drying, Rep 2
[14] = 3 days transport of sucrose (1%) and D-pinitol (50 mM), after 4 days slow drying, Rep 1
[15] = 3 days transport of sucrose (1%) and D-pinitol (50 mM), after 4 days slow drying, Rep 2
[16] = 3 days transport of sucrose (1%) and D-pinitol (50 mM), after 14 days slow drying, Rep 1
[17] = 3 days transport of sucrose (1%) and D-pinitol (50 mM), after 14 days slow drying, Rep 2
[18] = 3 days transport of sucrose (1%) and D-pinitol (50 mM), before slow drying, Rep 1
[19] = 3 days transport of sucrose (1%) and D-pinitol (50 mM), before slow drying, Rep 2
[20] = 3 days transport of sucrose (1%) and myo-inositol (50 mM), after 2 days slow drying, Rep 1
[21] = 3 days transport of sucrose (1%) and myo-inositol (50 mM), after 2 days slow drying, Rep 2
[22] = 3 days transport of sucrose (1%) and myo-inositol (50 mM), after 4 days slow drying, Rep 1
[23] = 3 days transport of sucrose (1%) and myo-inositol (50 mM), after 4 days slow drying, Rep 2
[24] = 3 days transport of sucrose (1%) and myo-inositol (50 mM), after 14 days slow drying, Rep 1
[25] = 3 days transport of sucrose (1%) and myo-inositol (50 mM), after 14 days slow drying, Rep 2
[26] = 3 days transport of sucrose (1%) and myo-inositol (50 mM), before slow drying, Rep 1
[27] = 3 days transport of sucrose (1%) and myo-inositol (50 mM), before slow drying, Rep 2
[28] = 3 days transport of sucrose (1%) without cyclitols, after 2 days slow drying, Rep 1
[29] = 3 days transport of sucrose (1%) without cyclitols, after 2 days slow drying, Rep 2
[30] = 3 days transport of sucrose (1%) without cyclitols, after 4 days slow drying, Rep 1
[31] = 3 days transport of sucrose (1%) without cyclitols, after 4 days slow drying, Rep 2
[32] = 3 days transport of sucrose (1%) without cyclitols, after 14 days slow drying, Rep 1
[33] = 3 days transport of sucrose (1%) without cyclitols, after 14 days slow drying, Rep 2
[34] = 3 days transport of sucrose (1%) without cyclitols, before slow drying, Rep 1
[35] = 3 days transport of sucrose (1%) without cyclitols, before slow drying, Rep 2

galactopinitol B
Accumulation of soluble carbohydrates in soybean axis [1, 4]: 1.47 μg/axis | Accumulation of soluble carbohydrates in soybean cotyledon [1, 4]: 0 μg/cotyledon | Accumulation of soluble carbohydrates in soybean seed coat [1, 4]: 0 μg/seed coat | Accumulation of soluble carbohydrates in soybean axis [1, 5]: 1.56 μg/axis | Accumulation of soluble carbohydrates in soybean cotyledon [1, 5]: 0 μg/cotyledon | Accumulation of soluble carbohydrates in soybean seed coat [1, 5]: 0.79 μg/seed coat | Accumulation of soluble carbohydrates in soybean axis [1, 6]: 6.35 μg/axis | Accumulation of soluble carbohydrates in soybean cotyledon [1, 6]: 22.34 μg/cotyledon | Accumulation of soluble carbohydrates in soybean seed coat [1, 6]: 1.76 μg/seed coat | Accumulation of soluble carbohydrates in soybean axis [1, 7]: 4.73 μg/axis | Accumulation of soluble carbohydrates in soybean cotyledon [1, 7]: 20.06 μg/cotyledon | Accumulation of soluble carbohydrates in soybean seed coat [1, 7]: 0.78 μg/seed coat | Accumulation of soluble carbohydrates in soybean axis [1, 8]: 9.35 μg/axis | Accumulation of soluble carbohydrates in soybean cotyledon [1, 8]: 25.58 μg/cotyledon | Accumulation of soluble carbohydrates in soybean seed coat [1, 8]: 0 μg/seed coat | Accumulation of soluble carbohydrates in soybean axis [1, 9]: 5.03 μg/axis | Accumulation of soluble carbohydrates in soybean cotyledon [1, 9]: 23.82 μg/cotyledon | Accumulation of soluble carbohydrates in soybean seed coat [1, 9]: 3.14 μg/seed coat | Accumulation of soluble carbohydrates in soybean axis [1, 10]: 0 μg/axis | Accumulation of soluble carbohydrates in soybean cotyledon [1, 10]: 0 μg/cotyledon | Accumulation of soluble carbohydrates in soybean axis [1, 11]: 0 μg/axis | Accumulation of soluble carbohydrates in soybean cotyledon [1, 11]: 0 μg/cotyledon | Accumulation of soluble carbohydrates in soybean axis [1, 12]: 3.09 μg/axis | Accumulation of soluble carbohydrates in soybean cotyledon [1, 12]: 0 μg/cotyledon | Accumulation of soluble carbohydrates in soybean seed coat [1, 12]: 0 μg/seed coat | Accumulation of soluble carbohydrates in soybean axis [1, 13]: 3.49 μg/axis | Accumulation of soluble carbohydrates in soybean cotyledon [1, 13]: 1.48 μg/cotyledon | Accumulation of soluble carbohydrates in soybean seed coat [1, 13]: 3.09 μg/seed coat | Accumulation of soluble carbohydrates in soybean axis [1, 14]: 9.62 μg/axis | Accumulation of soluble carbohydrates in soybean cotyledon [1, 14]: 41.39 μg/cotyledon | Accumulation of soluble carbohydrates in soybean seed coat [1, 14]: 1.44 μg/seed coat | Accumulation of soluble carbohydrates in soybean axis [1, 15]: 7.25 μg/axis | Accumulation of soluble carbohydrates in soybean cotyledon [1, 15]: 50.76 μg/cotyledon | Accumulation of soluble carbohydrates in soybean seed coat [1, 15]: 2.10 μg/seed coat | Accumulation of soluble carbohydrates in soybean axis [1, 16]: 10.61 μg/axis | Accumulation of soluble carbohydrates in soybean cotyledon [1, 16]: 29.37 μg/cotyledon | Accumulation of soluble carbohydrates in soybean seed coat [1, 16]: 3.57 μg/seed coat | Accumulation of soluble carbohydrates in soybean axis [1, 17]: 12.71 μg/axis | Accumulation of soluble carbohydrates in soybean cotyledon [1, 17]: 40.39 μg/cotyledon | Accumulation of soluble carbohydrates in soybean seed coat [1, 17]: 6.98 μg/seed coat | Accumulation of soluble carbohydrates in soybean axis [1, 18]: 0 μg/axis | Accumulation of soluble carbohydrates in soybean cotyledon [1, 18]: 0 μg/cotyledon | Accumulation of soluble carbohydrates in soybean axis [1, 19]: 0 μg/axis | Accumulation of soluble carbohydrates in soybean cotyledon [1, 19]: 0 μg/cotyledon | Accumulation of soluble carbohydrates in soybean axis [1, 20]: 1.29 μg/axis | Accumulation of soluble carbohydrates in soybean cotyledons [1, 20]: 6.27 μg/cotyledon | Accumulation of soluble carbohydrates in soybean seed coats [1, 20]: 0 μg/seed coat | Accumulation of soluble carbohydrates in soybean axis [1, 21]: 2.20 μg/axis | Accumulation of soluble carbohydrates in soybean cotyledons [1, 21]: 3.19 μg/cotyledon | Accumulation of soluble carbohydrates in soybean seed coats [1, 21]: 0 μg/seed coat | Accumulation of soluble carbohydrates in soybean axis [1, 22]: 3.06 μg/axis | Accumulation of soluble carbohydrates in soybean cotyledons [1, 22]: 11.92 μg/cotyledon | Accumulation of soluble carbohydrates in soybean axis [1, 23]: 4.60 μg/axis | Accumulation of soluble carbohydrates in soybean cotyledons [1, 23]: 28.11 μg/cotyledon | Accumulation of soluble carbohydrates in soybean seed coats [1, 23]: 1.07 μg/seed coat | Accumulation of soluble carbohydrates in soybean axis [1, 24]: 5.50 μg/axis | Accumulation of soluble carbohydrates in soybean cotyledons [1, 24]: 15.29 μg/cotyledon | Accumulation of soluble carbohydrates in soybean seed coats [1, 24]: 0 μg/seed coat | Accumulation of soluble carbohydrates in soybean axis [1, 25]: 3.91 μg/axis | Accumulation of soluble carbohydrates in soybean cotyledons [1, 25]: 9.70 μg/cotyledon | Accumulation of soluble carbohydrates in soybean seed coats [1, 25]: 2.22 μg/seed coat | Accumulation of soluble carbohydrates in soybean axis [1, 26]: 0.72 μg/axis | Accumulation of soluble carbohydrates in soybean cotyledons [1, 26]: 0 μg/cotyledon | Accumulation of soluble carbohydrates in soybean axis [1, 27]: 0 μg/axis | Accumulation of soluble carbohydrates in soybean cotyledons [1, 27]: 0 μg/cotyledon | Accumulation of soluble carbohydrates in soybean axis [1, 28]: 1.81 μg/axis | Accumulation of soluble carbohydrates in soybean cotyledon [1, 28]: 1.56 μg/cotyledon | Accumulation of soluble carbohydrates in soybean seed coats [1, 28]: 0 μg/seed coat | Accumulation of soluble carbohydrates in soybean axis [1, 29]: 2.60 μg/axis | Accumulation of soluble carbohydrates in soybean cotyledon [1, 29]: 1.54 μg/cotyledon | Accumulation of soluble carbohydrates in soybean seed coats [1, 29]: 1.22 μg/seed coat | Accumulation of soluble carbohydrates in soybean axis [1, 30]: 7.11 μg/axis | Accumulation of soluble carbohydrates in soybean cotyledon [1, 30]: 40.67 μg/cotyledon | Accumulation of soluble carbohydrates in soybean seed coats [1, 30]: 1.45 μg/seed coat | Accumulation of soluble carbohydrates in soybean axis [1, 31]: 7.06 μg/axis | Accumulation of soluble carbohydrates in soybean cotyledon [1, 31]: 36.28 μg/cotyledon | Accumulation of soluble carbohydrates in soybean seed coats [1, 31]: 0 μg/seed coat | Accumulation of soluble carbohydrates in soybean axis [1, 32]: 7.78 μg/axis | Accumulation of soluble carbohydrates in soybean cotyledon [1, 32]: 49.91 μg/cotyledon | Accumulation of soluble carbohydrates in soybean seed coats [1, 32]: 0 μg/seed coat | Accumulation of soluble carbohydrates in soybean axis [1, 33]: 5.09 μg/axis | Accumulation of soluble carbohydrates in soybean cotyledon [1, 33]: 30.24 μg/cotyledon | Accumulation of soluble carbohydrates in soybean seed coats [1, 33]: 2.18 μg/seed coat | Accumulation of soluble carbohydrates in soybean axis [1, 34]: 0 μg/axis | Accumulation of soluble carbohydrates in soybean cotyledon [1, 34]: 4.55 μg/cotyledon | Accumulation of soluble carbohydrates in soybean axis [1, 35]: 0 μg/axis | Accumulation of soluble carbohydrates in soybean cotyledon [1, 35]: 1.73 μg/cotyledon | change in concentration after feeding myo-inositol ([2]; axis and cotyledon tissues, myo-inositol up to 50 mM, after precocious maturation): little change | increase in concentration after feeding D-chiro-inositol ([2]; axis and cotyledons, concentration series, 14 days precocious maturation): did not increase | Soluble carbohydrates in embryos of seeds from buckwheat explants ([3]; fed 100 mM D-chiro-inositol in 1% sucrose solution 5 days, 2 days slow drying): 0 μg/embryo | Soluble carbohydrates in embryos of seeds from buckwheat explants ([3]; fed 100 mM D-chiro-inositol in 1% sucrose solution 5 days, 4 days slow drying): 0 μg/embryo | Soluble carbohydrates in embryos of seeds from buckwheat explants ([3]; fed 100 mM D-chiro-inositol in 1% sucrose solution 5 days, 7 days slow drying): 0 μg/embryo | Soluble carbohydrates in embryos of seeds from buckwheat explants ([3]; fed 100 mM D-chiro-inositol in 1% sucrose solution, after 1 day feeding): 0 μg/embryo | Soluble carbohydrates in embryos of seeds from buckwheat explants ([3]; fed 100 mM D-chiro-inositol in 1% sucrose solution, after 5 days feeding): 0 μg/embryo | Soluble carbohydrates in embryos of seeds from buckwheat explants ([3]; fed 100 mM D-pinitol in 1% sucrose solution 5 days, 2 days slow drying): 4.39 μg/embryo and 0 μg/embryo (2×) | Soluble carbohydrates in embryos of seeds from buckwheat explants ([3]; fed 100 mM D-pinitol in 1% sucrose solution 5 days, 4 days slow drying): 5.88 μg/embryo and 0 μg/embryo (2×) | Soluble carbohydrates in embryos of seeds from buckwheat explants ([3]; fed 100 mM D-pinitol in 1% sucrose solution 5 days, 7 days slow drying): 0 μg/embryo (2×) and 1.81 μg/embryo | Soluble carbohydrates in embryos of seeds from buckwheat explants ([3]; fed 100 mM D-pinitol in 1% sucrose solution, after 1 day feeding): 0 μg/embryo | Soluble carbohydrates in embryos of seeds from buckwheat explants ([3]; fed 100 mM D-pinitol in 1% sucrose solution, after 5 days feeding): 1.61 μg/embryo and 1.10 μg/embryo and 1.90 μg/embryo | Soluble carbohydrates in embryos of seeds from buckwheat explants ([3]; fed 100 mM myo-inositol in 1% sucrose solution 5 days, 2 days slow drying): 0 μg/embryo | Soluble carbohydrates in embryos of seeds from buckwheat explants ([3]; fed 100 mM myo-inositol in 1% sucrose solution 5 days, 4 days slow drying): 0 μg/embryo | Soluble carbohydrates in embryos of seeds from buckwheat explants ([3]; fed 100 mM myo-inositol in 1% sucrose solution 5 days, 7 days slow drying): 0 μg/embryo | Soluble carbohydrates in embryos of seeds from buckwheat explants ([3]; fed 100 mM myo-inositol in 1% sucrose solution, after 1 day feeding): 0 μg/embryo | Soluble carbohydrates in embryos of seeds from buckwheat explants ([3]; fed 100 mM myo-inositol in 1% sucrose solution, after 5 days feeding): 0 μg/embryo | Soluble carbohydrates in embryos of seeds from buckwheat explants ([3]; fed 1% sucrose (without cyclitols) solution 5 days, 2 days slow drying): 0 μg/embryo | Soluble carbohydrates in embryos of seeds from buckwheat explants ([3]; fed 1% sucrose (without cyclitols) solution 5 days, 4 days slow drying): 0 μg/embryo | Soluble carbohydrates in embryos of seeds from buckwheat explants ([3]; fed 1% sucrose (without cyclitols) solution 5 days, 7 days slow drying): 0 μg/embryo | Soluble carbohydrates in embryos of seeds from buckwheat explants ([3]; fed 1% sucrose (without cyclitols) solution, after 5 days feeding): 0 μg/embryo and tr

Source: patent US9926581B2, “Fagopyritol synthase genes and uses thereof” (Cornell Research Foundation, Inc., priority 2002, dated 2018)
